From PMC3076238, “Improved mycobacterial protein production using a Mycobacterium smegmatis groEL1ΔC expression strain” (BMC Biotechnology, 2011)
No constants are given. Whether binding was seen depends on the method and setting. In cells and extracts the contact can be indirect. Some binding calls cover weakened binding; strength is not graded here.

The chains behind the UniProt entries cited, without tags or fusion partners. Residues count along the entry.
UniProt P9WNK5: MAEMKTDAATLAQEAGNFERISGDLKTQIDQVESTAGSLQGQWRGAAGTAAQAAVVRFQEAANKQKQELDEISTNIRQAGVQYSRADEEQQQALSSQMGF
UniProt P9WNK7, residues 2-95: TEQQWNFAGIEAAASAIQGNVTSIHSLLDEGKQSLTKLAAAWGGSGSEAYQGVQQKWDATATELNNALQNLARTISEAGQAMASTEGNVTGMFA

Molecular target: CFP10 (Rv3874), N-terminally his-tagged (M. tuberculosis) (UniProt P9WNK5)
Test: pull-down

Substance: ESAT6 (Rv3875) (from UniProt P9WNK7 2-95)
- binding: binds
